The numbers were not newly measured in US20060013871A1 (priority 2003, published 2006), which cites them from elsewhere.

For the data set the following is noted: cited from earlier work.

Molecules are shown by their SMILES. Where two headings read alike, the source gives them in different places.

For `CC(C)Cc1ccc(C(C)C(=O)O)cc1` (centres unmarked) [Ibuprofen], the solubility entry is listed as “almost insoluble” (pH 1.0) and “soluble” (pH 7.0).
